These are yes or no findings as the source states them, for the method shown. Some binding calls cover weakened binding; strength is not graded here.

Protein sequences, listed by entry. Tags and fused reporters are not part of them. Lines headed by an entry give the natural chain unless they say otherwise; changes in a name come on top.
UniProt Q6EBC2: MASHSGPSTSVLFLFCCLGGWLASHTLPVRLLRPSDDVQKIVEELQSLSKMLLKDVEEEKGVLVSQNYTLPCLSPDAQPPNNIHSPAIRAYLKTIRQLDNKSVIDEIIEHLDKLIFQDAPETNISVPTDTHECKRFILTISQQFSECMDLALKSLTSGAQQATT

These results are taken from patent publication US20090252732A1.

The target of the assay is IL-31-CEE: purified, recombinant human IL-31 fused at the C-terminal with a peptide consisting of the sequence EYMPME, produced in BHK cells (human) (UniProt Q6EBC2). As to the kind of experiment: Western blot on denatured rIL31 (reduced and non-reduced). A general note: Immunoblotting shows a protein as a band on a membrane.

B1: mouse anti-human IL-31 mAb from clone 294.144.3.5 (ATCC Patent Deposit Designation PTA-6873) (antibody, mouse IgG1, V domains shown)
VH: QVQLQQSGPELMKPGASVKISCKATGYTFSTYWIEWIKQRPGHGLEWIGEILPGRGTTNYNAKFQGKATFTAETSSNTAYMQLSSLTSEDSAVYYCTTESKLGDDDYWQGTTLTVSS
VL: ENVLTQSPAIMSASPGERVTMTCSASSSVSYMHWYQQKSSNSPKLWIYDTTKLASGVPGRFSGSGSGNSYSLTISSMEAEDVATYFCFQGSEHPLTFGGGTTLEI
As to B1, the binding entry is reported as “binds”.
